Results on 1 sequence are retold here after paper PMC9406194.

pKd: −log10 of the molar value. For part of these data: The exact form of at least one protein or probe is not confirmed. For part of these data: The comparison behind a weaker result is the experiment's own reference, which may not be listed here. For part of these data: Whether high values mean tight binding is not given here for every scale.

The target in data set [1] is lysozyme (UniProt P00698). As to the kind of experiment: not stated (cited value). To be noted: 5'-NH2-(CH2)6 and 3'-(CH2)6-NH2; amide-linked to hydrogel carboxyl groups; 10 mM phosphate-buffered saline, pH 7.40 (one test at pH 5.00), 1 h immersion; temperature of the binding assay not stated; commercial protein; single-stranded DNA.
The target in data set [2] is bovine serum albumin (bovine) (UniProt P02769). Briefly: 2DPC hydrogel aptasensor (Debye ring). The note with it: DNA-H1-960, 500 uM protein, same limit as blank; 5'-NH2-(CH2)6 and 3'-(CH2)6-NH2; amide-linked to hydrogel carboxyl groups; 10 mM phosphate-buffered saline, pH 7.40 (one test at pH 5.00), 1 h immersion; temperature of the binding assay not stated; commercial protein; single-stranded DNA.

Data set [3] concerns the target lysozyme (UniProt P00698). As to the kind of experiment: 2DPC hydrogel aptasensor (Debye ring). To be noted: DNA-H1-960, 500 uM lysozyme, pH 5.00, smaller change than at pH 7.40, attributed to loss of carboxyl charge of the gel; 5'-NH2-(CH2)6 and 3'-(CH2)6-NH2; amide-linked to hydrogel carboxyl groups; 10 mM phosphate-buffered saline, pH 7.40 (one test at pH 5.00), 1 h immersion; temperature of the binding assay not stated; commercial protein; single-stranded DNA.

Sequence “ATCTACGAATTCATCAGGGCTAAAGAGTGCAGAGTTACTTAG [lysozyme-binding aptamer]” had a pKd in the data set with lysozyme [1] of 7.51. Moreover, in data set [2], the binding signal (nm particle spacing decrease) was below 12.7. Further, in the data set with lysozyme [3], the binding result was “binds more weakly”.
